In US20220096649A1 one finds binding data, which are given here for three molecules.

By UniProt entry, the sequences of proteins in these tests, tags left out. Where a name states a change or a piece, a line headed by the entry shows the natural chain unless it says otherwise.
UniProt P97797: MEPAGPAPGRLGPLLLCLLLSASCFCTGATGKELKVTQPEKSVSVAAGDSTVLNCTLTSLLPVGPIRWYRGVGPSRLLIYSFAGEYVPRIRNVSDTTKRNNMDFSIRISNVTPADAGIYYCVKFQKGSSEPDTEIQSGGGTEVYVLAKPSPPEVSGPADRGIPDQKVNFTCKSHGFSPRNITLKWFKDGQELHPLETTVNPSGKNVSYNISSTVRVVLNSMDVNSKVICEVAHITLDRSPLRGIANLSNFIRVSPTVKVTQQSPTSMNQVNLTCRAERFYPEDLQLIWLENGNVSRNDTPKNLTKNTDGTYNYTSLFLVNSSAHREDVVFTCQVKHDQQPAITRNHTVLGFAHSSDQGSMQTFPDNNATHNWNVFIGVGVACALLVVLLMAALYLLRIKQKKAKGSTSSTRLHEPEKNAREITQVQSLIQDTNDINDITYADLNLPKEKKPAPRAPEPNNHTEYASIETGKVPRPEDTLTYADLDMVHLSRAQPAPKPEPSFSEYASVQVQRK

Sequences and labels used below:
B1: Hum1/AB21_HC_Mutall (antibody, V domains shown)
VH: EVQLVESGGGVVQPGGSLRLSCAASGFTFSSNAMSWVRQAPGKGLEWVAGISAGGSDTYYPASVKGRFTISRDNSKNTLYLQMNSLRAEDTAVYYCARETWNHLFDYWGQGTLVTVSS
VL: SYELTQPPSVSVSPGQTARITCSGGSYSSYYYAWYQQKPGQAPVTLIYSDDKRPSNIPERFSGSSSGTTVTLTISGVQAEDEADYYCGGYDQSSYTNPFGGGTKLTVL
B2: Hum8/AB21_HC_Mutall (antibody, V domains shown)
VH: B1 VH
VL: B1 VL with S26A, T45L, L46V, D51S, N56G
B3: Hum9/AB21_HC_Mutall (antibody, V domains shown)
VH: B1 VH
VL: B1 VL with S26A, T45L, L46V, N56G

Where a chain is given by its changes, count along the chain named. These are yes or no findings as the source states them, for the method shown. A result given as binding can be weak or reduced; the word gives no strength.

For one assay, the target named is SIRP-α mouse BALBc (mouse (BALBc)) (UniProt P97797). Nature of the assay: SPR, antibody on GLC chip, SIRP as analyte. (In general: In SPR one partner is held on a chip, and binding of the other changes the refractive index at the surface.)
With B1, the binding result is recorded as “binds”.

Consider B2, for which the binding entry is on record as “binds”.

Regarding B3, the binding entry was “binds”.

In a further assay the target is SIRP-α mouse NOD (mouse (NOD)) (UniProt P97797). The assay is described as follows: SPR, antibody on GLC chip, SIRP as analyte.
For B1, the binding entry is “binds”.

Turning to B2, the binding result is listed as “binds”.

Turning to B3, the binding result was “binds”.
